Experimental data taken from patent US10633448B2 (PIERRE FABRE MEDICAMENT, priority 2014, dated 2020).

Experiment: general procedure: solution-phase peptide synthesis; DEPC/DIEA; HATU/DIEA
Details: for conjugation yield: conjugation step
[1] = late stage modification step, trifluoroacetic acid
[2] = late stage modification step, 210 nm, trifluoroacetic acid
[3] = late stage modification step, 254 nm, trifluoroacetic acid

Row | Substance | conjugation yield (trifluoroacetic acid) [%] | step yield [1] [%] | also measured
1 | 4-((S)-2-((S)-2-(6-(2,5-dioxo-2,5-dihydro-1H-pyrrol-1-yl)hexanamido)-3-methylbutanamido)-5-ureidopentanamido)benzyl (4-((3R,4S,7S,10S)-4-((S)-sec-butyl)-7,10-diisopropyl-3-(2-((S)-2-((1R,2R)-1-methoxy-2-methyl-3-oxo-3-(((S)-2-phenyl-1-(thiazol-2-yl)ethyl)amino)propyl)pyrrolidin-1-yl)-2-oxoethyl)-5,11-dimethyl-6,9-dioxo-2-oxa-5,8,11-triazatridecan-13-yl)phenyl)(methyl)carbamate 2,2,2-trifluoroacetate | 54 | – | –
2 | ((2R,3R)-3-((S)-1-((3R,4S,5S)-4-((S)-2-((S)-2-((4-(6-(2,5-dioxo-2,5-dihydro-1H-pyrrol-1-yl)-N-methylhexanamido)phenethyl)(methyl)amino)-3-methylbutanamido)-N,3-dimethylbutanamido)-3-methoxy-5-methylheptanoyl)pyrrolidin-2-yl)-3-methoxy-2-methylpropanoyl)-L-phenylalanine 2,2,2-trifluoroacetate | 62 | – | –
3 | ((2R,3R)-3-((S)-1-((3R,4S,5S)-4-((S)-2-((S)-2-((4-((S)-2-((S)-2-(6-(2,5-dioxo-2,5-dihydro-1H-pyrrol-1-yl)hexanamido)-3-methylbutanamido)-N-methyl-5-ureidopentanamido)phenethyl)(methyl)amino)-3-methylbutanamido)-N,3-dimethylbutanamido)-3-methoxy-5-methylheptanoyl)pyrrolidin-2-yl)-3-methoxy-2-methylpropanoyl)-L-phenylalanine 2,2,2-trifluoroacetate | 24 | – | –
4 | ((2R,3R)-3-((S)-1-((3R,4S,5S)-4-((S)-2-((S)-2-((4-aminophenethyl)(methyl)amino)-3-methylbutanamido)-N,3-dimethylbutanamido)-3-methoxy-5-methylheptanoyl)pyrrolidin-2-yl)-3-methoxy-2-methylpropanoyl)-L-phenylalanine 2,2,2-trifluoroacetate | – | 66 | –
5 | (S)-2-((2R,3R)-3-((S)-1-((3R,4S,5S)-4-((S)-2-((S)-2-((3-aminobenzyl)(methyl)amino)-3-methylbutanamido)-N,3-dimethylbutanamido)-3-methoxy-5-methylheptanoyl)pyrrolidin-2-yl)-3-methoxy-2-methylpropanamido)-3-phenylpropanoic acid | – | 20 | final HPLC purity [2]: 92.5%
6 | (S)-2-((2R,3R)-3-((S)-1-((3R,4S,5S)-4-((S)-2-((S)-2-((3-aminopropyl)(methyl)amino)-3-methylbutanamido)-N,3-dimethylbutanamido)-3-methoxy-5-methylheptanoyl) pyrrolidin-2-yl)-3-methoxy-2-methylpropanamido)-3-phenylpropanoic acid | – | 21 | final HPLC purity [2]: 96.83%
7 | (S)-2-((S)-2-((3-aminopropyl)(methyl)amino)-3-methylbutanamido)-N-((3R,4S,5S)-3-methoxy-1-((S)-2-((1R,2R)-1-methoxy-2-methyl-3-oxo-3-(((S)-2-phenyl-1-(thiazol-2-yl)ethyl)amino)propyl)pyrrolidin-1-yl)-5-methyl-1-oxoheptan-4-yl)-N,3-dimethylbutanamide, bis trifluoroacetic acid | – | 25 | final HPLC purity [3]: 93.7%
8 | (S)-2-((S)-2-((4-aminobenzyl)(methyl)amino)-3-methylbutanamido)-N-((3R,4S,5S)-3-methoxy-1-((S)-2-((1R,2R)-1-methoxy-2-methyl-3-oxo-3-(((S)-2-phenyl-1-(thiazol-2-yl)ethyl)amino)propyl)pyrrolidin-1-yl)-5-methyl-1-oxoheptan-4-yl)-N,3-dimethylbutanamide, trifluoroacetic acid | – | – | crude purity (method not given) (late stage modification step, LC/MS/UV (Atlantis T3 column, 254 nm), trifluoroacetic acid): 93.2%
9 | (S)-2-((S)-2-(((2-aminopyridin-4-yl)methyl)(methyl)amino)-3-methylbutanamido)-N-((3R,4S,5S)-1-((S)-2-((1R,2R)-3-(((1S,2R)-1-hydroxy-1-phenylpropan-2-yl)amino)-1-methoxy-2-methyl-3-oxopropyl)pyrrolidin-1-yl)-3-methoxy-5-methyl-1-oxoheptan-4-yl)-N,3-dimethylbutanamide, trifluoroacetic acid | – | – | final HPLC purity [2]: 99.2%; step yield (late stage modification step, TFA salt): 6%
10 | (S)—N-((3R,4S,5S)-3-methoxy-1-((S)-2-((1R,2R)-1-methoxy-2-methyl-3-oxo-3-(((S)-2-phenyl-1-(thiazol-2-yl)ethyl)amino)propyl)pyrrolidin-1-yl)-5-methyl-1-oxoheptan-4-yl)-N,3-dimethyl-2-((S)-3-methyl-2-(methyl(4-(methylamino)phenethyl)amino) butanamido)butanamide | – | 39 | final HPLC purity [3]: 93.68%
11 | Methyl ((2R,3R)-3-((S)-1-((3R,4S,5S)-4-((S)-2-((S)-2-((4-aminophenethyl)(methyl)amino)-3-methylbutanamido)-N,3-dimethylbutanamido)-3-methoxy-5-methylheptanoyl)pyrrolidin-2-yl)-3-methoxy-2-methylpropanoyl)-L-phenylalaninate | – | – | final HPLC purity (coupling step, 220 nm, trifluoroacetic acid): 95.3%; step yield (coupling step, trifluoroacetic acid): 45%
12 | N—((S)-1-(((S)-1-((4-((3R,4S,7S,10S)-4-((S)-sec-butyl)-7,10-diisopropyl-3-(2-((S)-2-((1R,2R)-1-methoxy-2-methyl-3-oxo-3-(((S)-2-phenyl-1-(thiazol-2-yl)ethyl)amino)propyl)pyrrolidin-1-yl)-2-oxoethyl)-5,11-dimethyl-6,9-dioxo-2-oxa-5,8,11-triazatridecan-13-yl)phenyl)amino)-1-oxo-5-ureidopentan-2-yl)amino)-3-methyl-1-oxobutan-2-yl)-6-(2,5-dioxo-2,5-dihydro-1H-pyrrol-1-yl)hexanamide 2,2,2-trifluoroacetate | 70 | – | –
13 | methyl ((2R,3R)-3-((S)-1-((3R,4S,5S)-4-((S)-2-((S)-2-((3-(6-(2,5-dioxo-2,5-dihydro-1H-pyrrol-1-yl)hexanamido)benzyl)(methyl)amino)-3-methylbutanamido)-N,3-dimethylbutanamido)-3-methoxy-5-methylheptanoyl)pyrrolidin-2-yl)-3-methoxy-2-methylpropanoyl)-L-phenylalaninate 2,2,2-trifluoroacetate | 50 | – | –
14 | methyl ((2R,3R)-3-((S)-1-((3R,4S,5S)-4-((S)-2-((S)-2-((3-((((4-((S)-2-((S)-2-(6-(2,5-dioxo-2,5-dihydro-1H-pyrrol-1-yl)hexanamido)-3-methylbutanamido)-5-ureidopentanamido)benzyl)oxy)carbonyl)amino)benzyl)(methyl)amino)-3-methylbutanamido)-N,3-dimethylbutanamido)-3-methoxy-5-methylheptanoyl)pyrrolidin-2-yl)-3-methoxy-2-methylpropanoyl)-L-phenylalaninate 2,2,2-trifluoroacetate | 48 | – | –
15 | methyl ((2R,3R)-3-((S)-1-((3R,4S,5S)-4-((S)-2-((S)-2-((4-(6-(2,5-dioxo-2,5-dihydro-1H-pyrrol-1-yl)-N-methylhexanamido)phenethyl)(methyl)amino)-3-methylbutanamido)-N,3-dimethylbutanamido)-3-methoxy-5-methylheptanoyl)pyrrolidin-2-yl)-3-methoxy-2-methylpropanoyl)-L-phenylalaninate 2,2,2-trifluoroacetate | 16 | – | –
